Values are relative to the signal before dosing, not to a vehicle control; the signal also falls without drug.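 Fibroblast labels name human fibroblasts: mostly primary ones from tissues such as uterus (C12385, HUF), lung (H6013), bone (Hs27A), adrenal (HADF) and skin (WS1), plus mammary HMF and breast cancer-associated Hs343T. The cancer cells are basal-like or mesenchymal-like triple-negative breast cancer lines. The paper calls a changed response a hit when it shifts by more than 3x the replicate standard deviation. The tissue of the other fibroblasts is not given here.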
System: BT20
Assay: relative JC-1 red fluorescence (viability) vs pre-drug, coculture with fibroblast (fraction); higher = more viable cancer cells
Description: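 JC-1 labelled TNBC cells cocultured 1:1 (1,500 cells each) with CellTrace Violet stained primary or stromal fibroblasts in 384-well plates in FluoroBrite medium, treated with one of 42 anticancer drugs at 0.1, 1, 10 or 100 uM. JC-1 red fluorescence (mitochondrial integrity in cancer cells only) was read by plate reader every 8 h for 72 h. Values are normalised to each well's pre-drug value. The stock of one drug was tenfold lower, so its dose labels may be too high.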

C=C1C[C@@H]2[C@H](CC[C@]3(C)C(=O)CC[C@@H]23)[C@@]2(C)C=CC(=O)C=C12 [Exemestane]
relative JC-1 red fluorescence
Details	8 h	16 h	24 h	32 h	40 h	48 h	56 h	64 h	72 h
0.1 µM, coculture fibroblast: C12385	0.962	0.89	0.809	0.742	0.6709	0.6394	0.6068	0.579	0.564
0.1 µM, coculture fibroblast: H6013	0.9823	0.887	0.888	0.867	0.845	0.836	0.847	0.824	0.816
0.1 µM, coculture fibroblast: H6019	0.851	0.76	0.72	0.65	0.599	0.581	0.542	0.511	0.491
0.1 µM, coculture fibroblast: H6076	0.963	0.865	0.79	0.756	0.726	0.7	0.684	0.674	0.663
0.1 µM, coculture fibroblast: H6231	0.965	0.88	0.7589	0.7024	0.6663	0.624	0.595	0.571	0.547
0.1 µM, coculture fibroblast: HADF	0.732	0.932	0.878	0.854	0.82	0.763	0.742	0.731	0.697
0.1 µM, coculture fibroblast: HCFa	0.953	0.859	0.82	0.775	0.719	0.685	0.637	0.607	0.561
0.1 µM, coculture fibroblast: HCPF	0.847	0.9157	0.8212	0.763	0.716	0.66	0.609	0.586	0.549
0.1 µM, coculture fibroblast: HHSteC	0.904	0.896	0.896	0.842	0.802	0.775	0.744	0.721	0.679
0.1 µM, coculture fibroblast: HMF	0.787	0.892	0.782	0.721	0.665	0.623	0.583	0.552	0.52
0.1 µM, coculture fibroblast: HPFa	0.9358	0.846	0.819	0.731	0.689	0.632	0.581	0.545	0.492
0.1 µM, coculture fibroblast: HUF	0.90662	0.793	0.733	0.639	0.574	0.522	0.49	0.461	0.435
0.1 µM, coculture fibroblast: Hs5	0.804	0.899	0.821	0.775	0.735	0.705	0.669	0.634	0.601
0.1 µM, coculture fibroblast: Hs27A	0.829	0.819	0.896	0.876	0.822	0.8055	0.78	0.756	0.699
0.1 µM, coculture fibroblast: Hs343T	0.912	0.886	0.771	0.712	0.657	0.606	0.546	0.528	0.494
0.1 µM, coculture fibroblast: WS1	0.891	0.7992	0.759	0.6914	0.632	0.603	0.5794	0.5466	0.531
1 µM, coculture fibroblast: C12385	0.904	0.83	0.782	0.719	0.652	0.62	0.58	0.562	0.544
1 µM, coculture fibroblast: H6013	0.9453	0.875	0.819	0.794	0.744	0.731	0.718	0.692	0.668
1 µM, coculture fibroblast: H6019	0.878	0.7885	0.772	0.715	0.667	0.643	0.605	0.578	0.551
1 µM, coculture fibroblast: H6076	0.781	0.909	0.814	0.77	0.734	0.715	0.695	0.687	0.659
1 µM, coculture fibroblast: H6231	0.888	0.93	0.811	0.74	0.683	0.627	0.586	0.563	0.533
1 µM, coculture fibroblast: HADF	0.852	0.862	0.817	0.774	0.737	0.703	0.686	0.673	0.645
1 µM, coculture fibroblast: HCFa	0.803	0.877	0.759	0.881	0.836	0.8	0.768	0.75	0.721
1 µM, coculture fibroblast: HCPF	0.814	0.86983	0.805	0.749	0.69453	0.648	0.608	0.583	0.547
1 µM, coculture fibroblast: HHSteC	0.909	0.884	0.886	0.825	0.789	0.77	0.755	0.731	0.693
1 µM, coculture fibroblast: HMF	0.837	0.8689	0.787	0.733	0.682	0.638	0.59	0.566	0.535
1 µM, coculture fibroblast: HPFa	0.911	0.844	0.831	0.739	0.699	0.647	0.614	0.576	0.511
1 µM, coculture fibroblast: HUF	0.922	0.833	0.83	0.786	0.755	0.727	0.707	0.681	0.652
1 µM, coculture fibroblast: Hs5	0.861	0.8961	0.8306	0.7775	0.7406	0.7027	0.66995	0.6439	0.613
1 µM, coculture fibroblast: Hs27A	0.86	0.846	0.966	0.972	0.9609	0.959	0.947	0.925	0.865
1 µM, coculture fibroblast: Hs343T	0.936	0.864	0.7872	0.7138	0.6688	0.616	0.577	0.557	0.529
1 µM, coculture fibroblast: WS1	0.8584	0.749	0.712	0.652	0.612	0.599	0.567	0.548	0.531
10 µM, coculture fibroblast: C12385	0.906	0.8466	0.796	0.743	0.709	0.682	0.656	0.625	0.601
10 µM, coculture fibroblast: H6013	0.89	0.837	0.849	0.858	0.887	0.791	0.801	0.752	0.7768
10 µM, coculture fibroblast: H6019	0.8674	0.811	0.813	0.773	0.73	0.728	0.699	0.681	0.669
10 µM, coculture fibroblast: H6076	0.9991	0.908	0.836	0.80987	0.7781	0.7565	0.744	0.741	0.722
10 µM, coculture fibroblast: H6231	0.866	0.9318	0.8369	0.7707	0.7126	0.6516	0.59489	0.552	0.502
10 µM, coculture fibroblast: HADF	0.941	0.948	0.879	0.8635	0.8383	0.7978	0.7895	0.7748	0.735
10 µM, coculture fibroblast: HCFa	0.978	0.892	0.834	0.807	0.767	0.729	0.689	0.669	0.615
10 µM, coculture fibroblast: HCPF	0.927	0.957	0.869	0.8	0.742	0.696	0.65577	0.634	0.593
10 µM, coculture fibroblast: HHSteC	0.958	0.879	0.865	0.806	0.759	0.73	0.692	0.671	0.63
10 µM, coculture fibroblast: HMF	0.902	0.9103	0.8097	0.7354	0.681	0.635	0.591	0.565	0.522
10 µM, coculture fibroblast: HPFa	0.891	0.947	0.827	0.9575	0.938	0.887	0.853	0.81	0.744
10 µM, coculture fibroblast: HUF	0.9506	0.888	0.861	0.783	0.759	0.726	0.712	0.698	0.682
10 µM, coculture fibroblast: Hs5	0.78	0.842	0.901	0.85	0.792	0.754	0.707	0.674	0.638
10 µM, coculture fibroblast: Hs27A	0.848	0.806	0.845	0.804	0.804	0.745	0.873	0.957	0.889
10 µM, coculture fibroblast: Hs343T	0.913	0.881	0.7799	0.72017	0.65617	0.6094	0.539	0.503	0.439
10 µM, coculture fibroblast: WS1	0.894	0.8634	0.814	0.764	0.721	0.692	0.655	0.622	0.599
100 µM, coculture fibroblast: C12385	0.906	0.869	0.86	0.825	0.783	0.765	0.745	0.721	0.69
100 µM, coculture fibroblast: H6013	0.833	0.865	0.828	0.929	0.818	0.823	0.823	0.8281	0.818
100 µM, coculture fibroblast: H6019	0.8712	0.8321	0.827	0.793	0.764	0.754	0.735	0.7298	0.7227
100 µM, coculture fibroblast: H6076	0.8192	0.959	0.888	0.858	0.823	0.794	0.769	0.758	0.735
100 µM, coculture fibroblast: H6231	0.895	0.9145	0.83125	0.777	0.723	0.676	0.635	0.611	0.594
100 µM, coculture fibroblast: HADF	0.943	0.945	0.878	0.87	0.849	0.8217	0.797	0.7728	0.716
100 µM, coculture fibroblast: HCFa	0.9391	0.917	0.912	0.886	0.871	0.728	0.71	0.688	0.734
100 µM, coculture fibroblast: HCPF	0.904	0.839	0.859	0.765	0.753	0.753	0.734	0.688	0.636
100 µM, coculture fibroblast: HHSteC	0.931	0.918	0.912	0.885	0.851	0.833	0.809	0.775	0.738
100 µM, coculture fibroblast: HMF	0.908	0.942	0.858	0.7986	0.758	0.692	0.65	0.617	0.564
100 µM, coculture fibroblast: HPFa	0.919	0.913	0.888	0.773	0.874	0.824	0.773	0.732	0.671
100 µM, coculture fibroblast: HUF	0.9274	0.877	0.8611	0.787	0.748	0.711	0.69	0.662	0.638
100 µM, coculture fibroblast: Hs5	0.866	0.908	0.844	0.797	0.757	0.726	0.692	0.664	0.64
100 µM, coculture fibroblast: Hs27A	0.7308	0.843	0.9462	0.9797	0.95	0.924	0.8921	0.87	0.822
100 µM, coculture fibroblast: Hs343T	0.789	0.939	0.8606	0.793	0.7496	0.691	0.628	0.59	0.542
100 µM, coculture fibroblast: WS1	0.837	0.785	0.752	0.699	0.647	0.619	0.584	0.551	0.523

— the supplement of paper PMC6078165
